In patent US20230242607A1 (EUTILEX, published 2023):
Results are given in words; binding and its absence hold for the method and conditions named. Some binding calls cover weakened binding; strength is not graded here. Where a sequence is shown, tags or fusion partners need not be part of it.

Target: T1, IL2-RB (UniProt P14784 27-239, limits assumed)
T1 construct: Bought recombinant protein (Sino); also called CD122; IL-2Rβ
T1 sequence (looked up): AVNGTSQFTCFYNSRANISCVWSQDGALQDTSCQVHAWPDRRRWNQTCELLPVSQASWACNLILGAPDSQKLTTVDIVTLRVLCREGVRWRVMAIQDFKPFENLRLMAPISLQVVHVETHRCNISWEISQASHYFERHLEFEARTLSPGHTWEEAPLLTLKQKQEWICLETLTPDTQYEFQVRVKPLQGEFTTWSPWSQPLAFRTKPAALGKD
Experiment: SPR, Biacore T200; IL-2-Fc on CM5 chip, receptor injected; 1:1 model

B1: IL2_V4 Fc fusion protein (Fc fusion)
chain: APTSSSTKKTQLQLEHLLLDLQMILNGINNYKNPKLTAMLTKKFYMPKKATELKHLQCLEEELKPLEEVLNLAQSKNFHFDPRDVISNINVFVLELKGSETTFMCEYADETATIVEFLNRWITFCQSIISTLTGGGGSSNTKVDKRVEPKSCDKTHTCPPCPAPPVAGPSVFLFPPKPKDTLMISRTPEVTCVVVDVSHEDPEVQFNWYVDGVEVHNAKTKPREEQFNSTFRVVSVLTVVHQDWLNGKEYKCKVSNKGLPAPIEKTISKTKGQPREPQVYTLPPSREEMTKNQVSLTCLVKGFYPSDIAVEWESNGQPENNYKTTPPMLDSDGSFFLYSKLTVDKSRWQQGNVFSCSVMHEALHNHYTQKSLSLSPGK
binding: binds
